Measured values taken from PubChem BioAssay AID1458 (National Center for Advancing Translational Sciences (NCATS), 2008).
Hit rate of the full screen: of about 210,000 compounds, about 5,900 (2.8%) were called active. Another 5% or so got no clear call; they are omitted. Calls follow the shape of the dose curve; as a rule, active = well fitted activation curve with a large enough effect; inconclusive = small, poorly fitted or top-dose-only effect; inactive = no such curve, though single readings can be large or run the other way. This is a selection; strong and weak results do not stand in their true shares. The source gives no active or inactive call for entries shown without one.

assay: qHTS Assay for Enhancers of SMN2 Splice Variant Expression; settings: HEK293 SMN2-luciferase splicing reporter, luminescence, 30-36 h; activity change, positive = activation: at 46.1 µM (top of the series) unless noted; also: nearly all actives have a fitted effect of over 55% in size; as to activity change, positive = activation: % of control where 0% means no effect
Method in brief: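 HEK293 cells carry an SMN2 minigene-luciferase reporter in which exon 7 inclusion puts luciferase in frame. Cells were seeded at 2000 cells/well, attached for 10-12 hours, then exposed to compounds for 30-36 hours at 37C before ONE-Glo luminescence.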
Potency is read from the fitted curve at half-maximal effect.

Row | Structure (SMILES) | activity change, positive = activation | Potency
1 | CCCCNC(=O)c1cc2n(n1)C(C(F)(F)F)CC(c1ccccc1)N2 (stereo unspecified) | 30.7% | 
2 | CC(Oc1ccc(Cl)cc1Cl)C(=O)NC(=S)N1CCc2ccccc21 (stereo unspecified) | -46% | 
3 | Cc1cccn2c(=O)c3cc(C#N)c(=O)n(-c4nnc(SCc5ccc(F)cc5)s4)c3nc12 | 22.4% | 
4 | O=C(CCCN1C(=O)/C(=C/c2ccccc2Cl)SC1=S)Nc1ccccn1 | -76.6% | 
5 | CCOC(=O)CSC1=Nc2ccccc2C2=NC(CC(=O)NCc3cccs3)C(=O)N12 (stereo unspecified) | 25.5% | 
6 | N#Cc1ccc(CN2CCC3(CC2)CCN(S(=O)(=O)c2ccccc2)CC3)cc1 | inactive: -71.5% | 
7 | COc1cccc(NC(=O)/C(C#N)=C/c2c(C)n(Cc3ccccc3)c3ccccc23)c1 | inactive: -51.5% | 
8 | Cc1cccc(-c2nc3cc([N+](=O)[O-])ccc3o2)c1 |  | active: 15.8 µM
9 | Cc1nnc(SCC(=O)Nc2ccc(Oc3ccccc3)cc2)n1N | 35.6% | 
10 | N#CCSc1nc2[nH]ncc2c(=O)n1-c1ccccc1Br | -72.1% | 
11 | CCOc1cc(/C=C2/C(=O)ON=C2C)ccc1OCc1ccccc1F | -56.8% | 
12 | Cc1ccc(C)c(S(=O)(=O)N2C(=S)NC(=O)C2CC(C)C)c1 (stereo unspecified) | 23.4% | 
13 | CC1CCN(C(=O)COC(=O)[C@H](C)NS(=O)(=O)/C=C/c2ccccc2)CC1 | 48.7% | 
14 | O=C(CN1C(=O)NC(Cc2c[nH]c3ccccc23)C1=O)Nc1cccc(S(=O)(=O)N2CCCCCC2)c1 (stereo unspecified) | inactive: -36.6% | 
15 | Cc1ccc(S(=O)(=O)N2CCN(CC(=O)Nc3ccc4c(c3)CCC4)CC2)cc1C | -48% | 
16 | COC(=O)c1ccc(C(=O)OC)c(NC(=O)COC(=O)C23CC4CC(CC(O)(C4)C2)C3)c1 | 39.7% | 
17 | CCOCCCNC(=O)c1ccccc1Br | 37.1% | 
18 | COC(=O)CCC(=O)Nc1cccc(C(=O)Nc2cccc(Cl)c2)c1 | 15.6% | 
19 | O=C(CCCn1c(=S)[nH]c2cc3c(cc2c1=O)OCO3)N1CCN(c2ccc(Cl)cc2)CC1 | inactive: -60% | 
20 | Cc1nc(NCc2ccccn2)c2ccccc2n1 | -75.7% | 
21 | CCSc1ncnc2c1sc1nc3c(cc12)COC(C)(C)C3 |  | active: 12.6 µM
22 | N#C/C(=C1\CCCN1)c1nc(-c2ccccc2)cs1 | 40% | 
23 | c1ccc2[nH]c(SCc3cn4ccccc4n3)nc2c1 | 38.6% | 

Row | Structure (SMILES) | activity change, positive = activation | Potency
24 | CC1(C)CC(=O)C=C(NCc2ccco2)C1 | 27.3% | 
25 | Nc1ncnc2nc(SCc3ccc(Cl)cc3Cl)[nH]c12 | inactive: -31.2% | 
26 | O=C(/C=C/c1ccco1)NCCc1ccccc1 | 112% | 
27 | COc1cc(C2c3c(oc4ccccc4c3=O)C(=O)N2CCN2CCOCC2)cc(OC)c1OC (stereo unspecified) | 31.2% | 
28 | CC(C)(C)C(=O)CSc1nc2c(c(-c3cccs3)c1C#N)CCC2 | -2.6% | 
29 | Brc1cccc(-c2nnc3n2CCCCC3)c1 | 38.5% | 
30 | O=C1CN(C(=O)c2ccccc2F)c2ccccc2N1 | 39.7% | 
31 | Cc1ccc(C(=O)Nc2ccc3c(c2)OCCO3)o1 | 30.1% | 
32 | CN(C)c1ccc(/C=C2/NC(=O)NC2=O)cc1 | 38% | 
33 | O=C(CSc1nnc(NC2CCCCC2)s1)Nc1ccc2c(c1)C(=O)c1ccccc1C2=O |  | active: 11.2 µM
34 | COc1ccccc1OCC(=O)Nc1cccc(-c2nnc(-c3ccco3)o2)c1 |  | active: 17.8 µM
35 | CC1(C)Cc2c(sc3nc(N/N=C/c4ccccc4)[nH]c(=O)c23)CO1 | inactive: -40.3% | 
36 | O=C(NCc1ccoc1)c1ccc(NC(=O)c2ccccc2Cl)cc1 | 19.1% | 
37 | CCOc1ccc2nc3sc(C(=O)N4CCOCC4)c(N)c3cc2c1 |  | active: 1.26 µM
38 | CC(=O)N1CCc2cc(S(=O)(=O)NCCC(=O)NC3CCN(Cc4ccccc4)CC3)ccc21 | 21.1% | 
39 | CN(C)CCCN1C(=O)c2cccc3c([N+](=O)[O-])ccc(c23)C1=O | inactive: -36.2% | 
40 | Clc1ccc(N/N=C/c2cccs2)nn1 | 92.9% | 
41 | O=C(CCCc1ccccc1)N1CCN(c2ccc([N+](=O)[O-])cc2)CC1 | -33.2% | 
42 | Clc1ccc(-n2nnnc2CN2CCOCC2)cc1 | 32% | 
43 | Nn1cnc2sc3c(c2c1=O)CCC3 | 35.4% | 
44 | Cc1ccnc2nc(C(=O)Nc3nnc(CC(C)C)s3)nn12 | -32.6% | 
45 | CCC(=O)c1ccc(OCc2ccc(C#N)cc2)cc1 | 35.7% | 
46 | O=C(N1CCCCC1)N1CCCN(C(=O)N2CCCCC2)CC1 | 35.9% | 

Row | Structure (SMILES) | activity change, positive = activation | Potency
47 | CCOC(=O)N1CCC(NC(=O)c2cccnc2SC)CC1 | 30.8% | 
48 | COCC(C)NC(=O)c1noc2c1CCc1cc(OC)ccc1-2 (stereo unspecified) |  | active: 10 µM
49 | O=C(Nc1ccc(S(=O)(=O)N2CCCC2)cc1)c1ccc(OCC2CCCO2)cc1 (stereo unspecified) | inactive: -76.1% | 
50 | O=C1c2ccccc2C(=O)N1c1ncccn1 | 39.5% | 
51 | CC(=O)c1sc(Nc2nc3ccc(F)cc3s2)nc1C |  | active: 12.6 µM
52 | Cc1ccc(O)c(C(=O)CC(=O)c2cccc(F)c2)c1 |  | active: 35.5 µM
53 | Cc1ccc(O)c(NC(=O)c2noc3c2CCc2ccccc2-3)c1 | inactive: -50.6% | 
54 | CCSc1n[nH]c(=S)s1 | 47.6% | 
55 | COC(=O)c1ccc(CSc2nnc(C)n2N)o1 | -7.68% | 
56 | Cc1nc(CC(=O)Nc2ccc(C(N)=O)cc2)cs1 | inactive: -26% | 
57 | Cn1c(=O)cc(OCCCC(=O)NCc2ccco2)c2ccccc21 |  | active: 10 µM
58 | COC(=O)C1CCN(C(=O)COc2cc3sc(C)nc3c3sccc23)CC1 | 47.9% | 
59 | CCCCOc1ccc(/C=C/C(=O)OCC(=O)N2CC(=O)Nc3ccccc32)cc1OCC | inactive: -60.5% | 
60 | Cc1ccc(NC(=O)c2oc3ccccc3c2NC(=O)C2CCCCC2)cc1 | 37.6% | 
61 | COc1ccc(CCNC(=O)CCc2c(C)c3ccc(O)c(C)c3oc2=O)cc1 | 45.8% | 
62 | Cc1cccc(-n2ncc3c(N(CCO)CCO)ncnc32)c1 |  | active: 14.1 µM
63 | O=C(NC(=S)Nc1ccccc1O)c1ccccc1Cl |  | active: 12.6 µM
64 | CCCCCCSC1=C(C#N)C(c2ccc(O)cc2)CC(=O)N1 (stereo unspecified) | 20.8% | 
65 | O=[N+]([O-])c1ccccc1S(=O)(=O)NCCc1ccncc1 | -38.7% | 
66 | CN1/C(=C\C=N\NC(=O)c2ccccc2Br)C(C)(C)c2ccccc21 | -71.6% | 
67 | CCc1ccc(C(=O)NNC(=O)OC)cc1 | -42% | 
68 | NC(=O)C1CCCN(Cc2ccc(Cl)cc2)C1 (stereo unspecified) | 48.5% | 
69 | COc1cccc(NC(=O)Cn2c(=O)n(Cc3ccc(C(=O)NCc4ccc(C)cc4)cc3)c(=O)c3ccccc32)c1 | inactive: -10.9% | 

Row | Structure (SMILES) | activity change, positive = activation | Potency
70 | CCOc1cc(C2C(C(=O)N3CCCCC3)=C(C)NC3=C2C(=O)CCC3)cc(Br)c1O (stereo unspecified) | 61.6% | 
71 | Cc1nn(-c2ccccn2)c2nc(-c3cccs3)cc(C(=O)NCc3ccco3)c12 | 37% | 
72 | CCN(CC)C(=O)CCCSc1nnc(Nc2ccccc2F)s1 | 72.6% | 
73 | C/C(=N\O)C(=O)C(CN1CCCCC1)CN1CCCCC1 | 24.9% | 
74 | CCn1c(=NC(=O)CSC(C)=O)sc2cc(OC)ccc21 | -33.2% | 
75 | Cc1ccc(NC2CC(=O)N(Cc3ccccc3)C2=O)cc1 (stereo unspecified) | 49.7% | 
76 | CCNC(=O)C1CC(=O)N(c2ccc(Br)cc2)C1 (stereo unspecified) | 20.9% | 
77 | COc1ccc(N(C(=O)c2ccc(C(C)(C)C)cc2)S(=O)(=O)c2ccc(Cl)cc2)cc1 | inactive: -35.7% | 
78 | CCNc1nc(-c2cc3ccccc3o2)cs1 |  | active: 3.16 µM
79 | Fc1ccc(C2CC(c3ccco3)=NN2c2ccccc2)cc1 (stereo unspecified) | -31.9% | 
80 | COc1ccc(/C=C/C(=O)N2CCN(c3ccccn3)CC2)c2ccccc12 | inactive: -32.7% | 
81 | CCCSc1nn2c(=O)c3ccccc3nc2s1 |  | active: 35.5 µM
82 | CCCS(=O)(=O)c1cn2cccc(N)c2c1S(=O)(=O)CCC | 39.2% | 
83 | Cc1ccc2c(c1)nnn2C1CCN(S(=O)(=O)c2ccc(C(=O)N3CC(C)CC(C)C3)cc2)CC1 (stereo unspecified) | -75.5% | 
84 | O=C(/C=C/c1ccc(-c2ccccc2)o1)c1ccccc1 | 79.2% | 
85 | COc1ccc(-n2c(C)nc3c(cnn3-c3ccc(Cl)cc3)c2=O)cc1 | inactive: -50.3% | 
86 | O=C(CSc1nc2ccccc2o1)N1c2ccccc2Sc2ccccc21 | -46.5% | 
87 | COCCCNC(=O)c1c(N)n(/N=C/c2cccnc2)c2nc3ccccc3nc12 | 32.4% | 
88 | COc1ccc(CNC(=O)CSc2nnc(Cn3nnc4ccccc43)n2C)cc1 | 27.2% | 
89 | O=C(Nc1nccs1)c1ccc(Br)o1 |  | active: 11.2 µM
90 | C/C(=N/NC(=O)CSc1ccccn1)c1ccc([N+](=O)[O-])cc1 | -4.05% | 
91 | COc1cc(C2C(C#N)=C(N)Oc3cc(C)oc(=O)c32)ccc1OC(=O)N1CCOCC1 (stereo unspecified) | 27.1% | 
92 | Cc1cc(OCCn2cnc3ccccc3c2=O)ccc1[N+](=O)[O-] | inactive: -19.5% | 

Row | Structure (SMILES) | activity change, positive = activation | Potency
93 | COc1ccc(C2CC(=O)c3c([nH]c(C(=O)OCc4ccccc4)c3C)C2)cc1OC (stereo unspecified) | inactive: -1.45% | 
94 | CC(=O)Nc1cccc(NC(=O)C2CC3CCC2C3)c1 (stereo unspecified) | 48% | 
95 | CC(c1ccco1)N(C(=O)c1ccc(C#N)cc1)c1ccccn1 (stereo unspecified) | 27.7% | 
96 | COc1ccc(C(=O)Nn2c(SCc3cccc([N+](=O)[O-])c3)nc3ccccc3c2=O)cc1 | -49.7% | 
97 | CSc1nc(C)c2c(n1)N(c1cccc(C)c1)CC2 | 24.1% | 
98 | CC(C(=O)N=c1sc2ccccc2n1C)N1C(=O)C2CC=CCC2C1=O (stereo unspecified) | 26.8% | 
99 | CCOC(=O)Cc1csc(NC(=O)CCS(=O)(=O)Cc2ccccc2)n1 | 40.4% | 
100 | c1ccc2nc(-c3nc4ccccc4o3)ccc2c1 | -46.3% | 
101 | Cc1ccc(C(=O)NC(C)c2ccccc2)cc1Br (stereo unspecified) | -0.816% | 
102 | Nc1c(-c2ccc(Cl)cc2)nnn1-c1ccccc1 | 168% | 
103 | O=C(Nc1ccc(O)cc1)c1c(O)c2c([nH]c1=O)CCCC2 |  | active: 11.2 µM
104 | O/N=C1/CCc2cccc3cccc1c23 | 30% | 
105 | COC(=O)C1C(c2ccccc2)C(C(=O)N2CCN(C)CC2)C1c1ccccc1 (stereo unspecified) | 7.46% | 
106 | Cc1noc2ncnc(Sc3ccccc3Cl)c12 | 37.6% | 
107 | Cc1cc(S(=O)(=O)N2CCCC2)ccc1OCC(=O)NCc1ccco1 | 39.3% | 
108 | CC(C)(C)c1ccc(NC(=O)COc2ccc(-n3ccnc3)cc2)cc1 | -89.9% | 
109 | Cc1cc2n(n1)C(c1ccc3c(c1)OCO3)Nc1c(C)cccc1-2 (stereo unspecified) |  | active: 3.98 µM
110 | CCc1ccc(C(=O)Nc2cc3c(cc2Cl)OCCCO3)cc1 |  | active: 25.1 µM
111 | COc1ccccc1Nc1nc(-c2ccc3c(c2)NC(=O)CO3)cs1 | inactive: -95.5% | 
